Results deposited as PubChem BioAssay AID686943 (Drosophila RNAi Screening Center, 2013)
Screen: 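Knockdowns that increase or decrease active ERK after insulin receptor stimulation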 (primary screen). Cells: Drosophila S2R+ haemocyte-like cells expressing YFP-tagged ERK (Rolled). Reagents: long dsRNA against Drosophila genes. Treatment: insulin stimulation versus unstimulated cells; dose and duration not given. Detection: 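Antibody staining for doubly phosphorylated ERK divided by ERK-YFP signal, as plate z-scores, in insulin-treated and untreated cells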. Direction: replicate 1, z-score of dpERK with insulin and replicate 2, z-score of dpERK with insulin: higher = more active ERK per ERK-YFP after insulin.
The screen tested about 23,000 reagents; shown is a random part of those that have a named target and a result. 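Extra replicates exist only for a retested subset of genes; insulin dose and duration not given; both raised and lowered dpERK matter.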 The numbers tell different reagents against one gene apart. A plus sign joins genes that one reagent is predicted to hit. Not all columns of the deposit are shown. The record does not give: the amount of reagent, the time to read-out.

{"gene": "Ork1", "dsRNA no.": 1, "replicate 1, z-score of dpERK with insulin": -0.2, "replicate 2, z-score of dpERK with insulin": 0.59}
{"gene": "MsR2", "dsRNA no.": 1, "replicate 1, z-score of dpERK with insulin": 0.83, "replicate 2, z-score of dpERK with insulin": 1.11}
{"gene": "MsR2", "dsRNA no.": 2, "replicate 1, z-score of dpERK with insulin": 1.19, "replicate 2, z-score of dpERK with insulin": 0.37}
{"gene": "MsR2", "dsRNA no.": 3, "replicate 1, z-score of dpERK with insulin": 0.08, "replicate 2, z-score of dpERK with insulin": 0.64}
{"gene": "bora", "dsRNA no.": 1, "replicate 1, z-score of dpERK with insulin": 0.72, "replicate 2, z-score of dpERK with insulin": 0.25}
{"gene": "CR32733 + CG32797", "dsRNA no.": 1, "replicate 1, z-score of dpERK with insulin": 0.11, "replicate 2, z-score of dpERK with insulin": 0.43}
{"gene": "Surf4", "dsRNA no.": 1, "replicate 1, z-score of dpERK with insulin": 0.34, "replicate 2, z-score of dpERK with insulin": 0.48}
{"gene": "ckd", "dsRNA no.": 1, "replicate 1, z-score of dpERK with insulin": 0.64, "replicate 2, z-score of dpERK with insulin": 0.11}
{"gene": "CG12912", "dsRNA no.": 1, "replicate 1, z-score of dpERK with insulin": -6.08, "replicate 2, z-score of dpERK with insulin": -3.47}
{"gene": "Csp", "dsRNA no.": 1, "replicate 1, z-score of dpERK with insulin": -0.07, "replicate 2, z-score of dpERK with insulin": -0.28}
{"gene": "CG11350", "dsRNA no.": 1, "replicate 1, z-score of dpERK with insulin": 0.27, "replicate 2, z-score of dpERK with insulin": -0.66}
{"gene": "CG12546 + CG14452", "dsRNA no.": 1, "replicate 1, z-score of dpERK with insulin": -0.17, "replicate 2, z-score of dpERK with insulin": -0.38}
{"gene": "Sodh1", "dsRNA no.": 1, "replicate 1, z-score of dpERK with insulin": 0.09, "replicate 2, z-score of dpERK with insulin": 0.64}
{"gene": "nAChRalpha1", "dsRNA no.": 1, "replicate 1, z-score of dpERK with insulin": -1.18, "replicate 2, z-score of dpERK with insulin": -2.98}
{"gene": "nAChRalpha1", "dsRNA no.": 2, "replicate 1, z-score of dpERK with insulin": -3.93, "replicate 2, z-score of dpERK with insulin": -2.01}
{"gene": "nAChRalpha1", "dsRNA no.": 3, "replicate 1, z-score of dpERK with insulin": 1.89, "replicate 2, z-score of dpERK with insulin": 0.82}
{"gene": "nAChRalpha1", "dsRNA no.": 4, "replicate 1, z-score of dpERK with insulin": 0.17, "replicate 2, z-score of dpERK with insulin": 1.07}
{"gene": "CG5849", "dsRNA no.": 1, "replicate 1, z-score of dpERK with insulin": 0.76, "replicate 2, z-score of dpERK with insulin": -0.13}
{"gene": "p38c", "dsRNA no.": 1, "replicate 1, z-score of dpERK with insulin": -0.09, "replicate 2, z-score of dpERK with insulin": 0.3}
{"gene": "CG10950", "dsRNA no.": 1, "replicate 1, z-score of dpERK with insulin": -0.63, "replicate 2, z-score of dpERK with insulin": -0.32}
{"gene": "CG18598", "dsRNA no.": 1, "replicate 1, z-score of dpERK with insulin": 0.16, "replicate 2, z-score of dpERK with insulin": 0.97}
{"gene": "Zip42C.1", "dsRNA no.": 1, "replicate 1, z-score of dpERK with insulin": 1.07, "replicate 2, z-score of dpERK with insulin": 0.55}
{"gene": "if", "dsRNA no.": 1, "replicate 1, z-score of dpERK with insulin": -0.82, "replicate 2, z-score of dpERK with insulin": -1.45}
{"gene": "Fife", "dsRNA no.": 1, "replicate 1, z-score of dpERK with insulin": -0.76, "replicate 2, z-score of dpERK with insulin": -1.38}
{"gene": "Fife", "dsRNA no.": 2, "replicate 1, z-score of dpERK with insulin": -0.91, "replicate 2, z-score of dpERK with insulin": -0.44}
{"gene": "Fife", "dsRNA no.": 3, "replicate 1, z-score of dpERK with insulin": 1.23, "replicate 2, z-score of dpERK with insulin": 0.19}
{"gene": "PTPMT1", "dsRNA no.": 1, "replicate 1, z-score of dpERK with insulin": 1.51, "replicate 2, z-score of dpERK with insulin": 0.4}
{"gene": "Trs33", "dsRNA no.": 1, "replicate 1, z-score of dpERK with insulin": 1.03, "replicate 2, z-score of dpERK with insulin": 1.49}
{"gene": "Mgtor", "dsRNA no.": 1, "replicate 1, z-score of dpERK with insulin": -0.34, "replicate 2, z-score of dpERK with insulin": -0.28}
{"gene": "CG43111", "dsRNA no.": 1, "replicate 1, z-score of dpERK with insulin": 0.24, "replicate 2, z-score of dpERK with insulin": 0.15}
{"gene": "Ric", "dsRNA no.": 1, "replicate 1, z-score of dpERK with insulin": -1.05, "replicate 2, z-score of dpERK with insulin": -0.04}
{"gene": "CG42397", "dsRNA no.": 1, "replicate 1, z-score of dpERK with insulin": 0.5, "replicate 2, z-score of dpERK with insulin": -0.04}
{"gene": "CG12099", "dsRNA no.": 1, "replicate 1, z-score of dpERK with insulin": 0.03, "replicate 2, z-score of dpERK with insulin": 0.52}
{"gene": "PH4alphaMP", "dsRNA no.": 1, "replicate 1, z-score of dpERK with insulin": 0.28, "replicate 2, z-score of dpERK with insulin": -0.2}
{"gene": "CG32548", "dsRNA no.": 1, "replicate 1, z-score of dpERK with insulin": 0.72, "replicate 2, z-score of dpERK with insulin": 0.33}
{"gene": "CG32548", "dsRNA no.": 2, "replicate 1, z-score of dpERK with insulin": 2.06, "replicate 2, z-score of dpERK with insulin": 1.12}
{"gene": "wda", "dsRNA no.": 1, "replicate 1, z-score of dpERK with insulin": 1.04, "replicate 2, z-score of dpERK with insulin": 0.61}
{"gene": "wda", "dsRNA no.": 2, "replicate 1, z-score of dpERK with insulin": 0.74, "replicate 2, z-score of dpERK with insulin": 0.2}
{"gene": "Ptpmeg", "dsRNA no.": 1, "replicate 1, z-score of dpERK with insulin": 0.81, "replicate 2, z-score of dpERK with insulin": 0.5}
{"gene": "DMAP1", "dsRNA no.": 1, "replicate 1, z-score of dpERK with insulin": -1.82, "replicate 2, z-score of dpERK with insulin": -1.88}

Sorted by “replicate 1, z-score of dpERK with insulin” (descending): some entries from above.
{"gene": "CG43111", "dsRNA no.": 1, "replicate 1, z-score of dpERK with insulin": 0.24, "replicate 2, z-score of dpERK with insulin": 0.15}
{"gene": "Mgtor", "dsRNA no.": 1, "replicate 1, z-score of dpERK with insulin": -0.34, "replicate 2, z-score of dpERK with insulin": -0.28}
